These results are taken from paper PMC12040169 (PLOS Biology, 2025).

The other results are listed elsewhere or left out.

This assay has as its system T1, CTL2-GFP (C. trachomatis L2/434/Bu, GFP-expressing).
T1 construct: L2/434/Bu, GFP-expressing
More on the design: species or system HeLa; Intracellular C. trachomatis growth in HeLa cells, bulk GFP fluorescence relative to DMSO. As to conditions: bulk GFP, single well; 28.5 h, 10 µM; inhibitor.
For the molecule `CN(C)C(=O)c1cc(Br)cnc1NCCCn1ccnc1` [CBK076378], the “% of control remaining” value was determined as 87.4802%.

For the molecule `CCOc1nnc(CN(CCC(N)=O)c2ccc(F)cc2)s1` [CBK305536], the “% of control remaining” value is given as 132.832%.

In the case of `COc1ccc(S(=O)(=O)N2CCN(Cc3ccc4c(c3)OCO4)CC2)c(Cl)c1Cl` [CBK074433], the “% of control remaining” value was determined as 106.009%.

In the case of `CN1CCCC1CCOc1ncccc1OCc1ccccc1` (stereo not shown) [CBK036313], the “% of control remaining” value was found to be 133.436%.

As to `CC(C)Cn1c(-c2ccc(F)cc2)cnc1SC(C)C(=O)NC(N)=O` (stereo not shown) [CBK295635], the “% of control remaining” value stood at 124.589%.

Regarding `COc1ccc(C)cc1NC(=O)c1cnc2n(c1=O)CCS2` [CBK287383], the “% of control remaining” value came out at 124.209%.

For the molecule `CC(Oc1ccccc1)C(=O)Nc1ccccc1NC(=O)c1ccco1` (stereo not shown) [CBK269636], the “% of control remaining” value was determined as 129.853%.

With `CCCN1CC(NS(=O)(=O)c2cc(-n3cccn3)ccc2OC)CC1=O` (stereo not shown) [CBK307285], the “% of control remaining” value is recorded as 101.809%.

As for `CCn1nc(C)c(-c2cncn2CC(C)N2CCCCC2)c1C` (stereo not shown) [CBK281808], the “% of control remaining” value is 130.06%.

`O=S(=O)(c1ccc(C(F)(F)F)cc1Cl)N1CCCN(Cc2cccc3c2OCO3)CC1` [CBK063067]: the “% of control remaining” value came to 116.898%.

`O=C1CC(c2ccccc2)c2c(c3ccccc3[nH]c2=O)O1` (stereo not shown) [CBK288237]: the “% of control remaining” value is on record as 95.7653%.

`CCCc1nnc(SCC(=O)Nc2cccc(C(F)(F)F)c2)n1N` [CBK028004]: the “% of control remaining” value came out at 102.217%.

On to `CN(C)c1ccc(-c2nccnc2NS(=O)(=O)c2ccccc2C(F)(F)F)cc1` [CBK050801], for which the “% of control remaining” value is recorded as 96.7077%.

Consider `Cc1c(NC(=O)CSc2nncn2C)ccc2nsnc12` [CBK269418], for which the “% of control remaining” value was determined as 80.4338%.

`Cc1cc(C)c2c(N)c(-c3ccncc3)sc2n1` [CBK288189]: the “% of control remaining” value was determined as 125.787%.

As for `CSc1ncc(Cl)c(C(=O)Nc2sc3c(c2C(=O)NCc2ccccc2)CCCC3)n1` [CBK268976], the “% of control remaining” value was 92.8655%.

Take `CC(NC(=O)C1C=CCN1S(C)(=O)=O)c1ccc2c(c1)CCC2` (stereo not shown) [CBK282667]: the “% of control remaining” value was 115.24%.

Turning to `O=C(NCc1ccccc1)c1ccccc1NC(=O)C1CCCCC1C(=O)O` (stereo not shown) [CBK269283], the “% of control remaining” value worked out at 122.574%.

Regarding `CN(C)CCn1c(=O)[nH]c2ncc(-c3ccco3)nc21` [CBK064251], the “% of control remaining” value came to 85.8256%.

`COc1cccc(C(=O)N2CCN(C(=O)Nc3ccc(C(F)(F)F)cc3)CC2)c1` [CBK154788]: the “% of control remaining” value amounted to 110.266%.

In the case of `CC(C)CCNC(=O)N(CCC#N)C1CCCCC1` [CBK156378], the “% of control remaining” value was 113.601%.

In the case of `O=C1C(=CNCCN2CCOCC2)C(=O)c2ccccc21` [CBK263008], the “% of control remaining” value is listed as 66.7935%.

In the case of `O=C(COC(=O)c1cc(O)nc2ccccc12)c1ccc(Br)cc1` [CBK262125], the “% of control remaining” value stood at 109.19%.

Consider `CN(C)C(=O)c1cccc(S(=O)(=O)NCC2CCCO2)c1` (stereo not shown) [CBK304867], for which the “% of control remaining” value is on record as 97.1501%.

Consider `CCOC(=O)c1sc(-c2ccccc2)nc1OCc1ccccc1Cl` [CBK067727], for which the “% of control remaining” value was 99.128%.

In the case of `CCc1nnc(SC(C)C(=O)N2CCCc3ccccc32)[nH]1` (stereo not shown) [CBK306009], the “% of control remaining” value was 108.033%.

Take `C[C@]12CN(Cc3ccccc3)C[C@H]1NC(=O)c1ccccc1C2O` (stereo partly shown) [CBK282302]: the “% of control remaining” value is recorded as 85.8025%.

`COc1nccc(N2CCCC(CO)(CC3CC3)C2)c1C#N` (stereo not shown) [CBK307553]: the “% of control remaining” value is listed as 139.207%.

Regarding `CC(C)(C)OC(=O)N1CCC(CNS(C)(=O)=O)CC1` [CBK003925], the “% of control remaining” value is given as 130.73%.

With `CS(=O)(=O)N[C@H]1CCN2C(=O)c3cc(-c4ccc(Cl)cc4)ccc3NC(=O)[C@@H]2C1` [CBK289565], the “% of control remaining” value is reported as 118.279%.

In the case of `Cc1cccc(C)c1NC(=O)Nc1cc(N2CCNCC2)c2occc2c1` [CBK061748C], the “% of control remaining” value came out at 103.089%.

Turning to `Fc1ccc(-c2c[nH]nc2C2CCOCC2)cc1` [CBK283464], the “% of control remaining” value came out at 101.851%.

For `O=C1CCC[C@]2(CN(Cc3ccccc3)C[C@H]2c2ccncc2)N1` [CBK283348], the “% of control remaining” value stood at 134.159%.

Consider `O=C(CCC1COc2ccccc2O1)N1CCN(Cc2ccccc2)CC1` (stereo not shown) [CBK269767], for which the “% of control remaining” value came out at 94.3901%.

Take `O=C(O)c1ccc(-n2ncc3ccccc3c2=O)cc1` [CBK288229]: the “% of control remaining” value was determined as 129.076%.

As to `O=C(CCOc1ccccc1F)Nc1cnc(-c2ccc(F)cc2)c(-c2ccsc2)n1` [CBK036897], the “% of control remaining” value is on record as 139.702%.

With `Cc1cc(=O)n(C)c(=O)n1CCCCCN1CCCC1` [CBK027386], the “% of control remaining” value worked out at 144.834%.

Regarding `O=C(/C=C/c1ccccc1)NC(NCc1cccnc1)C(Cl)(Cl)Cl` (stereo not shown) [CBK261804], the “% of control remaining” value stood at 52.1366%.

Consider `COc1ccc([C@@]23CC[C@@H](NC(=O)Nc4ccc5c(c4)OC(F)(F)O5)C[C@@H]2N(C)CC3)cc1OC` [CBK073743T], for which the “% of control remaining” value is reported as 100.186%.

Regarding `CCCc1c(Cc2c(Cl)cccc2Cl)c(=O)n(C)n1C` [CBK115466], the “% of control remaining” value came out at 112.614%.

On to `CSCC[C@@H]1NC(=O)N(c2ccc(CN3CCOCC3)cc2)C1=O` [CBK287954], for which the “% of control remaining” value is recorded as 168.332%.

For the molecule `O=C(c1cncnc1)N1CCC(F)CC1` [CBK200384], the “% of control remaining” value turned out to be 94.151%.

With `CC1CCCN(Cc2c(C3CCCNC3)[nH]c3ncccc23)C1` (stereo not shown) [CBK285112], the “% of control remaining” value came to 145.158%.

With `CCN1CCN(c2ccc(NC(=O)c3cc(-n4cnnc4)ccc3Cl)cc2Cl)CC1` [CBK269343], the “% of control remaining” value was 174.432%.

On to `O=C(CSc1ccc(F)cc1)Nc1cc(Cl)ccc1O` [CBK268685], for which the “% of control remaining” value is recorded as 150.48%.

With `O=C(O)COc1ccc(N2C(=O)C(O)=C(C(=O)c3ccccc3)C2c2cccc(F)c2)cc1` (stereo not shown) [CBK287010], the “% of control remaining” value came out at 155.858%.

For `CN1CCC(N(C)C(=O)NCc2cccc3ccccc23)C1` (stereo not shown) [CBK155999], the “% of control remaining” value was found to be 110.132%.

`Cc1ccc2nc(-c3ccc(/N=C/c4cccc(O)c4O)cc3)sc2c1` [CBK261583]: the “% of control remaining” value is 98.648%.

Take `COc1cc(/C=N/NC(N)=O)ccc1OC(=O)c1sc2ccccc2c1Cl` [CBK262265]: the “% of control remaining” value is recorded as 98.4498%.

Consider `Cc1ccc(S(=O)(=O)NCC(=O)N2CCN(Cc3ccccc3)CC2)cc1` [CBK265991], for which the “% of control remaining” value is 132.201%.

Consider `Nc1nc2ccccc2cc1-c1cccs1` [CBK112549], for which the “% of control remaining” value came out at 76.7212%.

In the case of `Cn1nc(-c2ccc(N3CCCCC3)c(NC(=O)COc3ccccc3)c2)c2ccccc2c1=O` [CBK265780], the “% of control remaining” value was 162.213%.

On to `CCCCCNC(=O)C1CCN(Cn2c(=O)oc3cc(Cl)ccc32)CC1` [CBK298290], for which the “% of control remaining” value amounted to 119.254%.

`CCCNC(=O)N1CCN2C(=O)c3cc(-c4ccccc4F)ccc3NC(=O)[C@@H]2C1` [CBK289595]: the “% of control remaining” value was determined as 113.88%.

On to `CCC(=O)N1CCCc2cc(C(O)CN3CCN(c4ccc(F)cc4)CC3)ccc21` (stereo not shown) [CBK286480], for which the “% of control remaining” value worked out at 16.7832%.

On to `COc1ccc(Cc2nc(CC3CCCOC3)n(CC(F)(F)F)n2)cc1` (stereo not shown) [CBK307140], for which the “% of control remaining” value stood at 109.68%.

`NS(=O)(=O)c1ccc(-c2nc(-c3ccccc3)no2)cc1` [CBK269957]: the “% of control remaining” value was determined as 121.296%.

With `COCOc1ccc(-c2nccnc2OCCc2cccs2)cc1` [CBK106911], the “% of control remaining” value was 124.529%.

In the case of `COc1cccc2sc(NC(=O)c3c(F)cccc3F)nc12` [CBK149283], the “% of control remaining” value amounted to 140.844%.

On to `CCCn1cc(C(=O)NCc2ccc(Cl)cc2)c(=O)c2cc(CN3CCOCC3)sc21` [CBK018478], for which the “% of control remaining” value is 99.661%.

Consider `CN(C)S(=O)(=O)c1ccc(-c2nn(-c3ccccc3)cc2/C=C(\C#N)c2nc3ccccc3c(=O)[nH]2)cc1` [CBK266266], for which the “% of control remaining” value stood at 183.381%.

On to `NCCCC(C(=O)O)C(=O)c1ccccc1-c1ccccc1` (stereo not shown) [CBK286941], for which the “% of control remaining” value turned out to be 101.411%.

Consider `CN(C)c1ccc(-c2nnc([C@H]3CCN(C(=O)c4ccccc4)C3)o2)cc1` [CBK289407], for which the “% of control remaining” value amounted to 117.741%.

For `Cc1ccc(S(=O)(=O)/N=C(\Nc2nc3ccccc3o2)NS(=O)(=O)c2ccc(C)cc2)cc1` [CBK266728], the “% of control remaining” value turned out to be 90.8323%.

For `CCn1c2ccccc2c2cc(NC(=O)CN(C)S(=O)(=O)c3ccc(C)cc3)ccc21` [CBK266756], the “% of control remaining” value was 113.003%.

On to `CCOC(=O)c1sc(-c2ccc(C(C)(C)C)cc2)nc1O` [CBK078538], for which the “% of control remaining” value is on record as 103.97%.

As for `C#CCn1cc(CN2CCc3c(nc(C)[nH]c3=O)C2)c2ccccc21` [CBK282382], the “% of control remaining” value stood at 126.454%.

For `COc1ncc(-c2nccnc2N[C@H](C)c2ccccc2)c(OC)n1` [CBK036588], the “% of control remaining” value amounted to 97.9504%.

For the molecule `Cn1cc(C2CCCCCN2C(=O)c2cccc(F)c2)cn1` (stereo not shown) [CBK284970], the “% of control remaining” value came out at 101.569%.

For `Clc1cccc(CNc2nccnc2-c2ccoc2)c1` [CBK036616], the “% of control remaining” value was found to be 104.762%.

For the molecule `O=C(CC1C(=O)N(c2ccccc2)C(=S)N1NC(=O)c1ccccn1)Nc1ccc(Cl)cc1` (stereo not shown) [CBK266711], the “% of control remaining” value is 77.7487%.

Take `Oc1ccc(CN2CCN(Cc3ccc(Br)s3)CC2)c2cccnc12` [CBK295645]: the “% of control remaining” value turned out to be 49.2598%.

On to `CCn1c(=O)n(CC(=O)N2CC(C)CC(C)C2)c2cccnc21` (stereo not shown) [CBK283845], for which the “% of control remaining” value was determined as 110.298%.

On to `COc1ccc(Nc2ccc(-c3ccc4c(c3)OCO4)cn2)c(C)c1` [CBK036799], for which the “% of control remaining” value came out at 121.286%.

In the case of `O=C1COc2ccccc2C/C=C/CC2(CCCN(C(=O)CN3CCCC3=O)C2)CN1` (stereo not shown) [CBK292032], the “% of control remaining” value was found to be 165.018%.

On to `Cc1nc2c(-c3cccs3)c(C)nn2c(O)c1C` [CBK283728], for which the “% of control remaining” value stood at 97.5288%.

For the molecule `COC(=O)Nc1ccc(S(=O)(=O)N2CCCCC2C(=O)O)cc1` (stereo not shown) [CBK058086], the “% of control remaining” value turned out to be 103.689%.

Regarding `COc1cccc(C(=O)N2CCC(Cc3ccccc3-c3ccccc3C)(C(N)=O)CC2)c1` [CBK285722], the “% of control remaining” value was found to be 125.536%.

Turning to `O=C(O)CN1C(=O)CC2(C1=O)C(=O)N(Cc1ccccc1)c1ccccc12` (stereo not shown) [CBK076093], the “% of control remaining” value turned out to be 77.8027%.
